# From PubChem BioAssay (NCATS)
# Sequences of proteins named here, by UniProt entry; tags and fusion partners are left off. A change or cut given only in a name is not applied to a line headed by its entry.
# UniProt Q9UNA4: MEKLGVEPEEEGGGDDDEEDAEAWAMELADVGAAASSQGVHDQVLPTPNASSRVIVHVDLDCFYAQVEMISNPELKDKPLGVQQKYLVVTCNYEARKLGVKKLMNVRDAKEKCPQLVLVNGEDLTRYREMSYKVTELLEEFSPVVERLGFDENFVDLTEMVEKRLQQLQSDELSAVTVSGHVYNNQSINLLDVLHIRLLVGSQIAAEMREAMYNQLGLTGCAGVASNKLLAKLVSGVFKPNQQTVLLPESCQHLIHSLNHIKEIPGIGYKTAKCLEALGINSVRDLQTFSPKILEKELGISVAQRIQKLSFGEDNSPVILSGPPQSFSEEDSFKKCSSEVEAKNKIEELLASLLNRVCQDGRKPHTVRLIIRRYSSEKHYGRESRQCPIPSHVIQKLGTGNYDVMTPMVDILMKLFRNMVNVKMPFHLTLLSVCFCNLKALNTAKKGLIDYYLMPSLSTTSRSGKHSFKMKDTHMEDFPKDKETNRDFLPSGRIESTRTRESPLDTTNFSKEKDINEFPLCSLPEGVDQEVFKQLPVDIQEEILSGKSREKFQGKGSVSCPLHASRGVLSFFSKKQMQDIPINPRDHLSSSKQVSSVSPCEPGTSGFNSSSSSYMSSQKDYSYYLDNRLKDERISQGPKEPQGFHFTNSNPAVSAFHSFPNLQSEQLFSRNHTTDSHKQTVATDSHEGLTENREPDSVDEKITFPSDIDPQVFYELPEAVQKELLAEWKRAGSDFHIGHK
# UniProt P11473: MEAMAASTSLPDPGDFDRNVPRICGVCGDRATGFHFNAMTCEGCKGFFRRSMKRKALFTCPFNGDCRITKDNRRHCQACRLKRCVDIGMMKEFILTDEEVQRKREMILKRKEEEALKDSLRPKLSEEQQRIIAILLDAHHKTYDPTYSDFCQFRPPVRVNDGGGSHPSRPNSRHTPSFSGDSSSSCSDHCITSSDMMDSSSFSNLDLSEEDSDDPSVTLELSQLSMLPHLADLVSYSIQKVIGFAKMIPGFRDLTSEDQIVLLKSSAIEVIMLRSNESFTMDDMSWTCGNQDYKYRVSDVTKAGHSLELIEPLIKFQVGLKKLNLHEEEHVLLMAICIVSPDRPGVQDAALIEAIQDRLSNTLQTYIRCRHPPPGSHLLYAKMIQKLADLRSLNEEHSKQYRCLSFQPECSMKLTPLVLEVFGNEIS
# UniProt Q99816: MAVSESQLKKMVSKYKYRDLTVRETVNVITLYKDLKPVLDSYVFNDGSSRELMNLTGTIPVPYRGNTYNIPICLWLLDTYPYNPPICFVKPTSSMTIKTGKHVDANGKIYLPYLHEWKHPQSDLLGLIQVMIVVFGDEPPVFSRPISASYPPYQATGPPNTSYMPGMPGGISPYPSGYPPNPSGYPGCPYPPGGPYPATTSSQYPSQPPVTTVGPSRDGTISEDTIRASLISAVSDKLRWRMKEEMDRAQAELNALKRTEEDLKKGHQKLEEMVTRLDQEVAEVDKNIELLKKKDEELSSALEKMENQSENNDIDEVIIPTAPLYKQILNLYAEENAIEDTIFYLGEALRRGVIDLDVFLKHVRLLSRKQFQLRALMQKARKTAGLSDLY
# UniProt P07378: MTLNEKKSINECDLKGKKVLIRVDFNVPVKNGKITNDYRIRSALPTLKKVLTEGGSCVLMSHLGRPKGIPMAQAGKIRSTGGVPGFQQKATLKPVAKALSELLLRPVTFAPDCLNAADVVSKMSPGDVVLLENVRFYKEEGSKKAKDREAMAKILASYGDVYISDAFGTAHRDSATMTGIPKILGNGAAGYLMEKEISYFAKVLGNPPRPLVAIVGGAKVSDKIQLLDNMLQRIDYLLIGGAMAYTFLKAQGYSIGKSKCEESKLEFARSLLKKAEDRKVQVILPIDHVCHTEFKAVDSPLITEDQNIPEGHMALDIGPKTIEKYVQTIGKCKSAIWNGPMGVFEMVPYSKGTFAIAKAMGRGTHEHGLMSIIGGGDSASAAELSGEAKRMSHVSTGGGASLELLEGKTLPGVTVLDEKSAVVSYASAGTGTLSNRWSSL
# UniProt Q14191, whole entry, looked up: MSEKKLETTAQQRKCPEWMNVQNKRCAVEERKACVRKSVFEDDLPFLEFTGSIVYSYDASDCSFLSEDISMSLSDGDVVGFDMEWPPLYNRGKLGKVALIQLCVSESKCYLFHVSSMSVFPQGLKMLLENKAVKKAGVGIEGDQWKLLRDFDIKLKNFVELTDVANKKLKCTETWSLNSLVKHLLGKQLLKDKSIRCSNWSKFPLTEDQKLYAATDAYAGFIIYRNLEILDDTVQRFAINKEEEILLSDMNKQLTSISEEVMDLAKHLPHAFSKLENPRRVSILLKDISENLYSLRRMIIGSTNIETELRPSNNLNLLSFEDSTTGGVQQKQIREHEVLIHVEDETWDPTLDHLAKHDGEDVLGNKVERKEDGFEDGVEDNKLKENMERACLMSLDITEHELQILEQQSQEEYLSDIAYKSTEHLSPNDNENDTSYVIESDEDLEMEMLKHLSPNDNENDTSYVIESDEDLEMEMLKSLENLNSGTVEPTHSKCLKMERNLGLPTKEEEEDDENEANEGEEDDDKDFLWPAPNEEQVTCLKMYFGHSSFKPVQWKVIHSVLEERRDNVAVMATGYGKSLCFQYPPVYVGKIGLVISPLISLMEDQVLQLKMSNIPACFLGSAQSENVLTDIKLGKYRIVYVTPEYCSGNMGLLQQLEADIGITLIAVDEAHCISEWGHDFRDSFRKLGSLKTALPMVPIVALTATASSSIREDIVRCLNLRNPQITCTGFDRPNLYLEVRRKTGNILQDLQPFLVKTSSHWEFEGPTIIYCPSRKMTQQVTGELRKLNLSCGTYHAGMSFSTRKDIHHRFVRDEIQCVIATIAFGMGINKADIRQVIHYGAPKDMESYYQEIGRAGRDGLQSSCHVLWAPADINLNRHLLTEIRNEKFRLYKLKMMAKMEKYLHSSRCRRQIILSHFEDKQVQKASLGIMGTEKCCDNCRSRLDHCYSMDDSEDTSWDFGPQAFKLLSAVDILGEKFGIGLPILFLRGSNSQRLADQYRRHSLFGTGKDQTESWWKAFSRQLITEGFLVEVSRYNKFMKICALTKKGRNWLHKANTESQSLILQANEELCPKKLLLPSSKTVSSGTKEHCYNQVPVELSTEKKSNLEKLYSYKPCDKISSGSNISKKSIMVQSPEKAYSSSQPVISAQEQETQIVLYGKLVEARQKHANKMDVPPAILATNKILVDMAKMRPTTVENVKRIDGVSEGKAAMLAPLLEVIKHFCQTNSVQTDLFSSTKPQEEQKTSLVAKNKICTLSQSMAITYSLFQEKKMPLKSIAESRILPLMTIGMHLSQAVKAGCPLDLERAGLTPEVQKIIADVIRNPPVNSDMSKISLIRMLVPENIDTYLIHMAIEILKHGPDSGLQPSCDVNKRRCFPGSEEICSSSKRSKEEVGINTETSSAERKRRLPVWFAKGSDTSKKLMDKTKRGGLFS
# UniProt Q9Y253: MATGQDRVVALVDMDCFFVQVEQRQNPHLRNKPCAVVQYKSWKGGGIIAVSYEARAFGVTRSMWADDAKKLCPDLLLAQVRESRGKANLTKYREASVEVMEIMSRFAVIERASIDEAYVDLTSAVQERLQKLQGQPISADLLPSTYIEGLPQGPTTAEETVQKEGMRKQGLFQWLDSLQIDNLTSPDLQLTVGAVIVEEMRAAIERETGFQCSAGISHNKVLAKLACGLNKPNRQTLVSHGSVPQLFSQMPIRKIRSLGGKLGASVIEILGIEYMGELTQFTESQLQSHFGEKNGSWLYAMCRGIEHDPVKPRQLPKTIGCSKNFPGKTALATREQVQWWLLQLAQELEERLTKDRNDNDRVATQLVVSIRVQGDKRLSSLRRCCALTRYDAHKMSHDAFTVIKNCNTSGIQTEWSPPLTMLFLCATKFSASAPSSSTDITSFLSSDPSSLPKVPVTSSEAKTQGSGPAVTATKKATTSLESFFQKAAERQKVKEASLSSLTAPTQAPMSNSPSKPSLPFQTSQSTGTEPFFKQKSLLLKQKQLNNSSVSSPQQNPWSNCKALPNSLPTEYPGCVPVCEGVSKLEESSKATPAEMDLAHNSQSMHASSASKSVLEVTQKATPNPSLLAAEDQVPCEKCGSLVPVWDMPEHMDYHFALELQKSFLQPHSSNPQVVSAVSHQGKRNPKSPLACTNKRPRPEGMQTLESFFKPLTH
# UniProt P54132: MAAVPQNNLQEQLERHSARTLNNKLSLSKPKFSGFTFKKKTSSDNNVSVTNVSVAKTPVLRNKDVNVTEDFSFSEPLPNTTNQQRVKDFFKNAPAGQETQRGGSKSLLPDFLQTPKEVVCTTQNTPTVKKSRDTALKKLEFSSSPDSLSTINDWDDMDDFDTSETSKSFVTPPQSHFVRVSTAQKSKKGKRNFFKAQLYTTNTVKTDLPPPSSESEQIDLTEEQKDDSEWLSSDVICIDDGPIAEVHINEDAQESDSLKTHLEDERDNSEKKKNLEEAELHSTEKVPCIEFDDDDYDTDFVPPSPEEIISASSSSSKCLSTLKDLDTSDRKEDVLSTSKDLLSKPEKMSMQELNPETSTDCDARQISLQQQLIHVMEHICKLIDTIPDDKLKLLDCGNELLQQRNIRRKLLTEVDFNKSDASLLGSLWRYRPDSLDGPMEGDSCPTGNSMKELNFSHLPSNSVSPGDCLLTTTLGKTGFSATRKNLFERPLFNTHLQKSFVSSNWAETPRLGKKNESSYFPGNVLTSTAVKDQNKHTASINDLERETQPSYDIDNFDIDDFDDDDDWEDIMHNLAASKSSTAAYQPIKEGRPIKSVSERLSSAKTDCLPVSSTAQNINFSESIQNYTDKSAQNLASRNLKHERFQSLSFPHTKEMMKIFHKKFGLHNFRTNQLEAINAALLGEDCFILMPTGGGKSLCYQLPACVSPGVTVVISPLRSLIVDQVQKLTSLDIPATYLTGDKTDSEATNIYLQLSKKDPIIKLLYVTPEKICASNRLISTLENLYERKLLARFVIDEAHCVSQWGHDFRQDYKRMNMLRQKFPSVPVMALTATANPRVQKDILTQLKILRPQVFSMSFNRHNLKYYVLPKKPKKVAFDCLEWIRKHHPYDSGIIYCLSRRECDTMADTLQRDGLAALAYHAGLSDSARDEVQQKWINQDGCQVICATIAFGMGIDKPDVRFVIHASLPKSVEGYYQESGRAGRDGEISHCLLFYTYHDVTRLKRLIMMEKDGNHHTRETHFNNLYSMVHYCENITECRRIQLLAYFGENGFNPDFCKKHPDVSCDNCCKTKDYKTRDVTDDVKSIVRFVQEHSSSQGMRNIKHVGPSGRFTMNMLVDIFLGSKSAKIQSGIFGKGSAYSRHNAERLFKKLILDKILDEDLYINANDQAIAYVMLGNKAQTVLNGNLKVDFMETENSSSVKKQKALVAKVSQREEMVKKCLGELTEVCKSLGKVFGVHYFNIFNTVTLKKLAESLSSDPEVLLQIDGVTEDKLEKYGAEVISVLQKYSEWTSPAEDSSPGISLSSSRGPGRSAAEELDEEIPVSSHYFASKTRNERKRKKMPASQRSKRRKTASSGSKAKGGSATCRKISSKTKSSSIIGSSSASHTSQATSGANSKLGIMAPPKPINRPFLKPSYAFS
# The inconclusive results got no clear call from the source; some entries with a clear call stand among them for comparison. For part of these data: Where the call is inconclusive, the potency comes from a doubtful curve fit. The source made the active and inactive calls. The call rests on the fitted dose curve; in most records, active means well fitted curve in the direction sought with a large enough effect; inconclusive means small, poorly fitted or top-dose-only effect, or another doubt; inactive means no such curve, though single readings can be large; an effect the other way counts as inactive or inconclusive.
# Key:
# [1] = molecular target: DNA polymerase iota (Homo sapiens) (UniProt Q9UNA4); assay: qHTS for Inhibitors of Polymerase Iota: Confirmatory Assay for Cherry-picked Compounds (AID 720496); settings: Pol iota primer extension, TAMRA/BHQ fluorescence
# Procedure, shortened: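 Recombinant human Pol iota (10 nM) was preincubated with compound for 15 min at room temperature, then 50 nM final primer/template substrate was added; the substrate carried a TAMRA-labeled reporter strand and a BHQ-2-quenched template. Fluorescence was read at 0 and 10 min.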
# [2] = molecular target: Rap guanine nucleotide exchange factor 3 (Homo sapiens) (UniProt O95398); assay: Confirmatory qHTS for antagonist of cAMP-regulated guanine nucleotide exchange factor 3 (EPAC1) (AID 1645880); settings: EPAC1 Rap1B-BODIPY-GDP exchange, fluorescence; activity, negative = inhibition: at 115 µM (top of the series); further: nearly all actives have a fitted effect of over 55% in size
# Procedure, shortened: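 Nucleotide exchange uses 100 nM EPAC1, 250 nM RAP1B-BODIPY-GDP and 50 uM GDP, with compounds in a concentration-titration series. After 5 min at room temperature, fluorescence (480 nm ex/540 nm em) is read every 5 min for 30 min. Data are normalized to control ATA and DMSO.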
# [3] = molecular target: Rap guanine nucleotide exchange factor 3 (Homo sapiens) (UniProt O95398); assay: Counterscreen qHTS for agonist of cAMP-regulated guanine nucleotide exchange factor 3 (EPAC1) (AID 1645889); settings: EPAC1 Rap1B-BODIPY-GDP exchange, fluorescence; activation: at 154 µM (top of the series) unless noted; further: nearly all actives have a fitted effect of over 40% in size; on activation: % of control where 0% means no effect
# Procedure, shortened: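 Rap1B-BODIPY-GDP 250 nM + GDP 50 uM; cpds 7-pt, final 9.74 nM–152 uM (activator mode) or from 7.32 nM upwards (inhibitor mode); RT; FI 480/540 nm at 5 and 30 min, then ± cAMP, reread.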
# [4] = qHTS for Inhibitors of the vitamin D receptor (VDR): Hit Validation using a Texas Red Assay (AID 602201); settings: VDR coregulator binding, Texas Red fluorescence polarization, agonist-bound VDR ligand-binding domain; series mostly up to 57.1 µM; on activity, negative = inhibition: on the % scale 0 is the no-effect control and ±100 the full control effect
# Procedure, shortened: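 After a 2-hour room-temperature incubation, polarization of Texas-Red emission was read (Ex 595 nm/Em 615 nm). Final mix contained 7 nM Texas Red, 1.5 uM VDR-LBD and LG19078.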
# [5] = molecular target: Vitamin D3 receptor (Homo sapiens) (UniProt P11473); assay: qHTS for Inhibitors of the vitamin D receptor (VDR): Hit Validation using a Beta-Lactamase Assay (AID 602202); settings: VDR beta-lactamase reporter cells, FRET ratio, cells co-treated with VDR agonist LG190178; series mostly up to 46.1 µM
# Procedure, shortened: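 Beta-lactamase reporter read-out (447 nm emission of cleaved FRET substrate, 2 h) after 18 h compound exposure of HEK293 cells carrying a VDR-GAL4 fusion and UAS reporter, stimulated with LG190178.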
# [6] = qHTS for Inhibitors of the vitamin D receptor (VDR): Hit Validation using a Cytotoxicity Assay (AID 602204); settings: cytotoxicity counter-screen, cell viability; series mostly up to 48.3 µM;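 further: cells co-treated with VDR agonist LG190178 at 300 nM; nearly all actives have a fitted effect of over 75% in size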
# Procedure, shortened: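 Compounds were applied to 20,000 cells per well after a 4-hour attachment period and incubated 18 hours. Cellular ATP was then detected luminescently following a 30-minute reagent step.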
# [7] = molecular target: Tumor susceptibility gene 101 protein (Homo sapiens) (UniProt Q99816); assay: qHTS Assay for Iinhibitors of HIV-1 Budding by Blocking the Interaction of PTAP/TSG101: Hit Validation (AID 651600); settings: PTAP peptide/TSG101 UEV interaction, biochemical assay; series mostly up to 57.5 µM; further: nearly all actives have a fitted effect of over 70% in size
# Procedure, shortened: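 Compounds are added to the Tsg101 binding domain (10 uM final) in pH 7.5 HEPES buffer. FITC-PTAP peptide follows at 50 nM final. After 20 min at r.t., polarized FITC emission is measured.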
# [8] = molecular target: Phosphoglycerate kinase, glycosomal (Trypanosoma brucei brucei) (UniProt P07378); assay: qHTS for inhibitors of Phosphogylcerate Kinase: Hit Validation Screen (AID 686980); settings: TbPGK coupled GAPDH assay, Kinase-Glo luminescence; series mostly up to 57.5 µM; further: nearly all actives have a fitted effect of over 65% in size
# Procedure, shortened: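 Luminescent ATP detection (Kinase-Glo Plus) follows a 60-minute room-temperature incubation, with wells lacking PGK as controls. Buffer: 100 mM TEA (pH 7.6), 5 mM MgCl2, 0.01% Tween-20. Coupling enzyme GAPDH (100 nM final) supplies unstable 1,3-BPG in-well.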
# [9] = molecular target: Bifunctional 3'-5' exonuclease/ATP-dependent helicase WRN (Homo sapiens) (UniProt Q14191); assay: qHTS for Inhibitors of WRN Helicase: Confirmatory Assay for Cherry-picked Compounds. (AID 720497); settings: WRN helicase DNA unwinding, fluorescence kinetic; series mostly up to 57.1 µM; further: nearly all actives have a fitted effect of over 65% in size
# Procedure, shortened: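 Confirmatory retest of cherry-picked hits in 1536-well format. Enzyme (20 nM final) sat with compound for 15 min at room temperature before forked duplex substrate (100 nM) and ATP (2 mM) were added, and unwinding was followed kinetically by red fluorescence.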
# [10] = molecular target: DNA polymerase eta (Homo sapiens) (UniProt Q9Y253); assay: qHTS for Inhibitors of Polymerase Eta: Confirmatory Assay for Cherry-picked Compounds (AID 720502); settings: Pol eta primer extension, TAMRA/BHQ fluorescence, 10 min
# Procedure, shortened: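 Quenched-fluorescence replication assay: 10 nM Pol eta, 50 nM substrate final, 15 min compound preincubation at room temperature, 10 min kinetic reaction read at 525/598 nm.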
# [11] = molecular target: RecQ-like DNA helicase BLM (Homo sapiens) (UniProt P54132); assay: qHTS for Inhibitors of WRN Helicase: BLM Helicase Counterscreen for WRN Inhibitors (AID 720503); settings: Recombinant BLM helicase DNA unwinding, red fluorescence; series mostly up to 57.1 µM; further: nearly all actives have a fitted effect of over 60% in size
# Procedure, shortened: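 BLM (1 nM) was preincubated with compounds for 15 min at room temperature in Tris-HCl pH 8.0, 50 mM NaCl, 2 mM MgCl2 buffer. Unwinding started with 100 nM DNA and 2 mM ATP (final); red fluorescence was read twice, 15 min apart.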
# Potency means the concentration at half of the fitted maximal effect.
compound,measurement,setting,value
CCOc1cc(/C=C2\C(=N)N3N=C(S(C)(=O)=O)SC3=NC2=O)ccc1OCCOc1cccc(OC)c1,Potency,[1],"inconclusive: 84.4 µM [inhibitor, single point]"
same,Potency,[2],active: 19 µM
same,activation,[3],inconclusive: 41.2% [activator]
O=C1C(=O)c2ccc(-c3ccccc3)cc2-c2ccccc21,Potency,[4],"inconclusive: 0.224 µM [inhibitor, full curve, poor fit]"
same,Potency,[5],active: 3.26 µM
same,Potency,[6],active: 2.51 µM
same,Potency,[1],"inconclusive: 75.2 µM [inhibitor, partial curve]"
same,Potency,[2],"inconclusive: 5.36 µM [inhibitor, full curve]"
same,activation,[3],inconclusive: 43.6% [activator]
Cc1ccc(N2NC(=O)/C(=C\c3cc4c(cc3[N+](=O)[O-])OCO4)C2=O)cc1C,Potency,[4],"inconclusive: 3.55 µM [inhibitor, single point]"
same,Potency,[5],"inconclusive: 18.4 µM [inhibitor, single point]"
same,Potency,[2],active: 75.7 µM
same,Potency,[3],inactive
CSc1ccc(C2C(C(=O)c3ccco3)=C(O)C(=O)N2c2nnc(SC)s2)cc1 (configuration not stated),Potency,[7],"inconclusive: 16.3 µM [inhibitor, partial curve]"
same,Potency,[2],active: 33.8 µM
same,Potency,[3],inactive
Oc1ccc(C2=Nn3c(nnc3-c3ccco3)SC2)cc1O,Potency,[8],active: 5.8 µM
same,Potency,[9],active: 15.2 µM
same,Potency,[10],active: 19 µM
same,Potency,[11],active: 17.1 µM
same,Potency,[2],active: 16.9 µM
same,Potency,[3],"inconclusive: 0.0025 µM [activator, full curve, poor fit]"
Cc1ccc(C(=O)/C=C/c2cc(Br)cc(Br)c2O)o1,Potency,[4],inactive
same,Potency,[5],"inconclusive: 20.6 µM [inhibitor, single point]"
same,Potency,[10],"inconclusive: 84.9 µM [inhibitor, single point]"
same,Potency,[2],active: 26.9 µM
same,Potency,[3],inactive

# Taken from above (7 entries):
compound,measurement,setting,value
Cc1ccc(N2NC(=O)/C(=C\c3cc4c(cc3[N+](=O)[O-])OCO4)C2=O)cc1C,Potency,[2],active: 75.7 µM
same,Potency,[3],inactive
CSc1ccc(C2C(C(=O)c3ccco3)=C(O)C(=O)N2c2nnc(SC)s2)cc1 (configuration not stated),Potency,[7],"inconclusive: 16.3 µM [inhibitor, partial curve]"
same,Potency,[2],active: 33.8 µM
same,Potency,[3],inactive
Oc1ccc(C2=Nn3c(nnc3-c3ccco3)SC2)cc1O,Potency,[8],active: 5.8 µM
same,Potency,[9],active: 15.2 µM
